These are yes or no findings as the source states them, for the method shown. Binding seen in cells or lysates may run through a third protein. Some binding calls cover weakened binding; strength is not graded here.
Legend:
[1] = biological target: Myc-tagged PKCη (UniProt P23298); assay: co-IP
[2] = biological target: Flag-tagged constitutively active radixin RdxT564E (UniProt P26043); assay: co-IP; lysates of MVM-infected (30 pfu/cell) A9 cell lines co-expressing MycPKCη and a Flag-tagged ERM variant; non-denaturing conditions; IP with mouse monoclonal anti-Flag M2; western blot with rabbit anti-Myc
[3] = biological target: Flag-tagged dominant-negative radixin RdxT564A (UniProt P26043); assay: as above

Protein sequences, listed by entry. Tags and fused reporters are not part of them. Lines headed by an entry give the natural chain unless they say otherwise; changes in a name come on top.
UniProt P23298: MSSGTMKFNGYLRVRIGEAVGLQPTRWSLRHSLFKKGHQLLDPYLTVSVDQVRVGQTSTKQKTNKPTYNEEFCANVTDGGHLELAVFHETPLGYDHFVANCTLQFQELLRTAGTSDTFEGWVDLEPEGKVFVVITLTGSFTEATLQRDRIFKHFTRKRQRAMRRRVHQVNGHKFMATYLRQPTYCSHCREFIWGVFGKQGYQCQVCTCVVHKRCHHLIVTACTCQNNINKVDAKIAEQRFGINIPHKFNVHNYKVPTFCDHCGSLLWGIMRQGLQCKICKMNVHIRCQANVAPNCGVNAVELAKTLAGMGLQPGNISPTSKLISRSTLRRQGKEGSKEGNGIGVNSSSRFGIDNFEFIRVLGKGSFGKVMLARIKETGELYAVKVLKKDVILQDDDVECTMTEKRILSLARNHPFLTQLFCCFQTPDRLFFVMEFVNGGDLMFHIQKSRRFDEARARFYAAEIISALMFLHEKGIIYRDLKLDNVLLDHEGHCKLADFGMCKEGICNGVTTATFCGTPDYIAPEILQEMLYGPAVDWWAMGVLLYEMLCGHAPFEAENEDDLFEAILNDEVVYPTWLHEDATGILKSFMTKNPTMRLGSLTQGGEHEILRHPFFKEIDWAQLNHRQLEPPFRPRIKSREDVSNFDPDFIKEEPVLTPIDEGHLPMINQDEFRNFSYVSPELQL
UniProt P26043: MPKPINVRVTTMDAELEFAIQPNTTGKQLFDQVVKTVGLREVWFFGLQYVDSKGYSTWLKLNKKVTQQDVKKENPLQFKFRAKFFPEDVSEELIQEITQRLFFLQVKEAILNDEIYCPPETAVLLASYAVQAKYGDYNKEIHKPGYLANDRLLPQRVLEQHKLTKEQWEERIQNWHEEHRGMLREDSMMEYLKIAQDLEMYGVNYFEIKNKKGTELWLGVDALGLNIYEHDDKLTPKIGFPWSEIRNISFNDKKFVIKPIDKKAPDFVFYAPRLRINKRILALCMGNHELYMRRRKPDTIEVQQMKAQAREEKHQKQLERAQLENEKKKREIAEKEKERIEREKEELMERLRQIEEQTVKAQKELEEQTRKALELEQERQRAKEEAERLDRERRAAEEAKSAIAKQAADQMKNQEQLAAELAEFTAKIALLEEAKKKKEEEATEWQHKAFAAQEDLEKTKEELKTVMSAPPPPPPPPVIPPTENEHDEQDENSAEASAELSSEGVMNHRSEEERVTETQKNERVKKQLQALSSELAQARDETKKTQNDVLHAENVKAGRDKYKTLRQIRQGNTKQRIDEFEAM

binding [1]	binding [2]	binding [3]	Substance
binds			endogenous radixin (from UniProt P26043 1-583)
	binds	binds weakly	Myc-tagged PKCη (from UniProt P23298 1-683) (enzyme)
